For 1 substance, binding results are on record in publication PMC10281260.

Protein sequences, listed by entry. Tags and fused reporters are not part of them. Residues count along the entry.
UniProt P54368: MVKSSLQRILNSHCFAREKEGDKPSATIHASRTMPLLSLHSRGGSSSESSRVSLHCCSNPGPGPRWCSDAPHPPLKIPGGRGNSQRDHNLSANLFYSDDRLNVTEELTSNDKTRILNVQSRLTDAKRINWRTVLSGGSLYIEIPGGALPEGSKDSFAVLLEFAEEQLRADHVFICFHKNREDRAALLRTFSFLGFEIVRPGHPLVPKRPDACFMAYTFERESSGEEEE
UniProt Q9UHB6, residues 161-759: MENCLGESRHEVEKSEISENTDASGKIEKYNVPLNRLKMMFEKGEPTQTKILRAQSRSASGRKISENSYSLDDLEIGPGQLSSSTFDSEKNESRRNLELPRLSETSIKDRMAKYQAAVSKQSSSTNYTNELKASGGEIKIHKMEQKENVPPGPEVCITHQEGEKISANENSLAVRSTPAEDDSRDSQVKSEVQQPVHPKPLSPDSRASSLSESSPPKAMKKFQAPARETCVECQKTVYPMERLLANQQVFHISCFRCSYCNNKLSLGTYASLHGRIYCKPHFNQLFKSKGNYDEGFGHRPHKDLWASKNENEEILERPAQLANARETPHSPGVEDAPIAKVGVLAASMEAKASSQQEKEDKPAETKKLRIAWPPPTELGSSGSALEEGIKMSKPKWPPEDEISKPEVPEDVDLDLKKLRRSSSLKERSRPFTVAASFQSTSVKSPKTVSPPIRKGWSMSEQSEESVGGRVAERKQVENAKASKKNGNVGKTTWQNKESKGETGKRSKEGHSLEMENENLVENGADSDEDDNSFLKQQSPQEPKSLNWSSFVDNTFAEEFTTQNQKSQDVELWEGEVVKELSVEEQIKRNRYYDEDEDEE

No constants are given. Whether binding was seen depends on the method and setting. Binding seen in cells or lysates may run through a third protein. Some binding calls cover weakened binding; strength is not graded here.

The test deals with ornithine decarboxylase antizyme 1 (Myc-Az1) (human) (UniProt P54368). Briefly: co-IP; H1299 cells co-transfected with the plasmids; lysates (0.5% NP-40 buffer) collected 24 h post transfection; IP with anti-Myc antibody (~5 μg/ml) 3 h at 4°C, protein G-agarose 2 h at 4°C; western blot. On the technique in general: Immunoblotting shows a protein as a band on a membrane.

Consider “EPLIN-α (LIM domain and actin-binding protein 1, isoform α) (from UniProt Q9UHB6-2 1-599)”, for which the binding result is “binds”.
